Laboratory results: PubChem BioAssay AID624297 (National Center for Advancing Translational Sciences (NCATS), 2012)
In all, about 340,000 compounds went through this assay and about 6,200 (1.8%) were called active. The inconclusive results got no clear call from the source; some entries with a clear call stand among them for comparison. The call rests on the fitted dose curve; in most records, active means well fitted activation curve with a large enough effect; inconclusive means small, poorly fitted or top-dose-only effect; inactive means no such curve, though single readings can be large or run the other way. A potency beside an inconclusive call is a rough fit, not a confirmed value.
Potency means the concentration at half of the fitted maximal effect.

Experiment: A quantitative high throughput screen for small molecules that induce DNA re-replication in SW480 colon adenocarcinoma cells. Further: nearly all actives have a fitted effect of over 55% in size.
Details: Hoechst DNA content imaging, 48 h; series mostly up to 46.1 µM
Summary of the method: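 Image-based DNA-content assay: after two days of treatment, nuclei were labelled with the DNA dye Hoechst and imaged, and hits were compounds raising the count of nuclei showing high fluorescence intensity.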
With Cn1ncc2c(Nc3cccc([N+](=O)[O-])c3)ncnc21 the Potency was inconclusive: 5.8 µM [activator, full curve, poor fit]. For CN(C)/C=C/C(=O)c1ccccc1, the Potency was “inactive”. In the case of N#CC1c2ccccc2C=CN1C(=O)c1ccccc1 (centres undefined), the Potency is reported as inconclusive: 29.1 µM [activator, single point]. In the case of Cc1oc(C(C)(C)C)cc1C(N)=O, the Potency is reported as inconclusive: 0.731 µM [activator, single point]. In the case of Cc1nc2ccccn2c1C(=O)NN=C1C2CC3CC(C2)CC1C3, the Potency is reported as inconclusive: 29.1 µM [activator, single point]. In the case of CC1CCCC(C)N1C(=O)CNCc1ccc2c(c1)OCO2 (centres undefined), the Potency is reported as “inactive”. With O=[N+]([O-])c1cccc(-c2nnnn2-c2cccc(F)c2)c1 the Potency was “inactive”. In the case of O=C(c1ccc(CS(=O)Cc2ccccc2Cl)o1)N1CCN(c2cccc(Cl)c2)CC1 (centres undefined), the Potency is reported as inconclusive: 20.6 µM [activator, single point]. In the case of Cc1cccc(NC(=O)c2cc(NC(=O)C3CCCCC3C(=O)O)ccc2N2CCCCC2)c1 (centres undefined), the Potency is reported as “inactive”. With OCCC1CN(CC2CCCCC2)CCN1C1CCCC1 (centres undefined) the Potency was inconclusive: 29.1 µM [activator, single point]. In the case of Cc1ccc(NC(=O)CCC(=O)N2CCC(c3ccccc3)=N2)cc1S(=O)(=O)N1CCCCC1, the Potency is reported as inconclusive: 16.4 µM [activator, single point]. In the case of CC(C)(C)OC(=O)NCCCCCNC(=O)c1[nH]cnc1C(=O)N[C@@H](CCCCNC(=O)OC(C)(C)C)C(=O)OC(C)(C)C, the Potency is reported as inconclusive: 16.4 µM [activator, single point]. For COc1cccc(NC(=O)CSc2nc3ccccc3c(=O)n2CCCC(=O)NCC2CCCO2)c1 (centres undefined), the Potency was “inactive”. With CCOC(=O)C1=C(C)NC(C)=C(C(=O)OCC)C1C(=O)OCC(=O)c1ccc2c(c1)OCCO2 the Potency was “inactive”. With O=C(N/N=C/c1ccc2ccccc2c1)c1ccc(COc2ccc3c(c2)CCC3)o1 the Potency was “inactive”. With CC(C)C(=O)NC(=S)Nc1ccc(S(=O)(=O)N2CCCC2)cc1 the Potency was “inactive”. For Cc1ccc(/C([O-])=C(/C(=S)NCc2ccco2)[n+]2ccccc2)cc1[N+](=O)[O-], the Potency was inconclusive: 0.092 µM [activator, full curve]. With COc1ccc(NC(=S)N(CCCN2CCOCC2)Cc2cn(C)c3ccccc23)cc1 the Potency was inconclusive: 32.6 µM [activator, partial curve, poor fit]. In the case of O=C1C(Cl)=C(NCc2ccco2)C(=O)c2ccccc21, the Potency is reported as inconclusive: 20.6 µM [activator, single point]. With COc1ccc2c(C#CCCO)c(-c3ccc(S(C)(=O)=O)cc3)sc2c1 the Potency was inconclusive: 20.6 µM [activator, single point]. In the case of Cn1cc(NC(=O)Nc2ccc(C(F)(F)F)cc2)c(C(F)(F)F)n1, the Potency is reported as “inactive”. For CC(C)COP(=O)(OCC(C)C)C(O)c1ccc(F)cc1 (centres undefined), the Potency was inconclusive: 25.9 µM [activator, single point]. With COc1ccc(-n2c(SCC(=O)O)nc3sc4c(c3c2=O)CCC4)cc1 the Potency was inconclusive: 0.13 µM [activator, full curve, poor fit]. In the case of CN(C)c1ccc(C(CNC(=O)c2ccco2)N2CCCC2)cc1 (centres undefined), the Potency is reported as “inactive”. For Cn1cc(/C(Cc2ccccc2)=N\O)c2ccccc21, the Potency was inconclusive: 29.1 µM [activator, single point]. In the case of CCn1c(SCC(=O)Nc2ccc(-c3nc4ccc(C)cc4s3)cc2)nnc1-c1ccccc1, the Potency is reported as “inactive”. In the case of O=C(OCC(O)C(O)C(O)C(SCc1ccccc1)SCc1ccccc1)c1ccccc1 (centres undefined), the Potency is reported as inconclusive: 18.4 µM [activator, single point]. For C[C@@]12CCC=C[C@H]1[C@H](c1ccc3ccccc3c1/C=C/c1ccccc1)N(Cc1ccccc1)C2=O, the Potency was inconclusive: 0.116 µM [activator, full curve, poor fit]. With CCCOP(=O)(c1ccc(N(C)C)cc1)C(Nc1ccccc1)c1ccc(N(C)C)cc1 (centres undefined) the Potency was inconclusive: 0.13 µM [activator, full curve, poor fit]. For CSCCC(NC(=O)c1ccccc1)C(=O)N1CC(C)OC(C)C1 (centres undefined), the Potency was “inactive”. In the case of CC1CC(C)CN(C(=O)COC(=O)/C=C/c2cccc([N+](=O)[O-])c2)C1 (centres undefined), the Potency is reported as inconclusive: 0.259 µM [activator, full curve, poor fit]. In the case of CC(NS(=O)(=O)c1ccc(CCC(=O)NCc2ccco2)cc1)c1ccccc1 (centres undefined), the Potency is reported as inconclusive: 1.16 µM [activator, full curve, poor fit]. For O=C(/C=C\c1ccccc1)Nc1ccc(NC(=O)c2ccco2)cc1, the Potency was inconclusive: 29.1 µM [activator, single point]. For CCN1C(=O)/C(=C/C=C2\N(CC)c3cc(S(=O)(=O)N(C)C)ccc3N2c2ccccc2)SC1=S, the Potency was “inactive”. With Cc1cccc(N2C(=O)CC(Sc3nnc(C)s3)C2=O)c1 (centres undefined) the Potency was inconclusive: 20.6 µM [activator, single point]. With CCC(C(=O)NCCCN(CC)Cc1ccccc1)n1nc(C)c2sc3ccccc3c2c1=O (centres undefined) the Potency was “inactive”. In the case of CCCNC(=O)Nc1ccc(NC(C)=O)cc1, the Potency is reported as “inactive”. With CCN(CC)C(=O)CSc1nnc(-c2ccccn2)n1Cc1ccccc1 the Potency was “inactive”. In the case of COc1nc(-c2ccccc2)cc(-c2ccc3c(c2)OCO3)c1C#N, the Potency is reported as inconclusive: 0.651 µM [activator, full curve, poor fit]. With COc1ccc(C2/C=C\CN(CC(C)C)CC(=O)N2Cc2cccc(F)c2)cc1 (centres undefined) the Potency was inconclusive: 18.4 µM [activator, single point]. For COCCNC(=O)c1ccccc1NC(=O)Nc1ccccc1, the Potency was “inactive”. With COc1ccc(C(CCNCc2ccc(N(C)C)cc2)C(C)C)cc1 (centres undefined) the Potency was inconclusive: 29.1 µM [activator, single point]. In the case of COc1ccc(/C=N\NC(=O)c2ccccc2)cc1COc1ccccc1, the Potency is reported as inconclusive: 29.1 µM [activator, single point]. In the case of Cc1ccc(C)c(N2CCN(CCCNC(=O)CCn3c(=O)c4cccn4c4cccnc43)CC2)c1, the Potency is reported as inconclusive: 0.731 µM [activator, full curve, poor fit]. With COc1ccc(Nc2ncnc3ccc(Br)cc23)cc1OC the Potency was inconclusive: 5.62 µM [activator, single point]. In the case of CC1Cc2nc(SCC(=O)Nc3ccc4c(c3)OCO4)n(Cc3ccccc3)c(=O)c2S1 (centres undefined), the Potency is reported as inconclusive: 20.6 µM [activator, single point]. For O=[N+]([O-])c1ccc(Oc2cccnc2)c([N+](=O)[O-])c1, the Potency was inconclusive: 2.59 µM [activator, full curve]. With C/C(=N\Nc1ccc([N+](=O)[O-])cc1)c1ccc2c(c1)OCO2 the Potency was inconclusive: 13 µM [activator, partial curve, poor fit]. For CCOC(=O)C1=C(CSCc2ccccc2)NC(=O)NC1c1cc(C)ccc1C (centres undefined), the Potency was inconclusive: 29.1 µM [activator, single point]. In the case of Cc1cc(C(=O)N2CCC(CO)(Cc3cccc(C(F)(F)F)c3)CC2)n[nH]1, the Potency is reported as inconclusive: 5.17 µM [activator, full curve, poor fit]. With CCN(CC)c1ccc(/C=N/N2CCOCC2)c(O)c1 the Potency was inconclusive: 29.1 µM [activator, partial curve, poor fit]. With COc1ccc(OC)c(/C=N/NC(=O)c2cccc3ccccc23)c1 the Potency was inconclusive: 29.1 µM [activator, single point]. With Oc1c(C(Nc2cccc(C(F)(F)F)c2)c2ccncc2)ccc2cccnc12 (centres undefined) the Potency was active: 11.6 µM. With O=C(CSc1ccc2nnc(-c3ccccn3)n2n1)Nc1ccccc1 the Potency was inconclusive: 29.1 µM [activator, single point]. With COc1ccccc1NS(=O)(=O)c1ccc(C(=O)N2CCN(c3ccccc3)CC2)cc1 the Potency was “inactive”. For O=C(CSCSCC(=O)NCC1CCCO1)NCC1CCCO1 (centres undefined), the Potency was inconclusive: 29.1 µM [activator, single point]. With O=C(c1ccc(=O)[nH]n1)N1CCN(S(=O)(=O)c2ccc3ccccc3c2)CC1 the Potency was “inactive”. With Cc1ccccc1CNC1CCCCC1 the Potency was “inactive”. With CCOC(=O)C1Cc2ccccc2CN1 (centres undefined) the Potency was inconclusive: 29.1 µM [activator, single point]. With Nc1nc(Nc2ccccc2)nc(NC2CCCCC2)c1[N+](=O)[O-] the Potency was active: 9.2 µM. In the case of CSc1ccc(S(=O)(=O)N2c3ccccc3CC2C)cc1 (centres undefined), the Potency is reported as inconclusive: 29.1 µM [activator, single point]. With Cc1ccc(C(=O)N2CCC3(CC2)Oc2ccc(Cl)cc2C(=O)C32CC(c3cccnc3)=NO2)s1 (centres undefined) the Potency was inconclusive: 4.11 µM [activator, partial curve]. With CCCCNC(=O)/C(=C\c1ccc([N+](=O)[O-])o1)NC(=O)c1ccccc1 the Potency was inconclusive: 18.4 µM [activator, single point]. For NC(=O)c1nsc(C(=O)N(CC(=O)NC2CCCC2)c2ccc(F)c(Cl)c2)c1N, the Potency was inconclusive: 20.6 µM [activator, single point]. In the case of c1ccc(-n2nnnc2Oc2ccc(-n3ccnc3)cc2)cc1, the Potency is reported as “inactive”. With CCCn1cnc2sc(CC)cc2c1=O the Potency was inconclusive: 0.366 µM [activator, full curve, poor fit]. With COc1ccccc1/C=N\Nc1cc(C)nc(-n2nc(C)cc2C)n1 the Potency was inconclusive: 23.1 µM [activator, single point]. With COCC(C)NC(=O)c1cc2c(ccc3ccccc32)oc1=O (centres undefined) the Potency was “inactive”. In the case of O=C(CCS(=O)(=O)c1ccc(Cl)cc1)Nc1nccs1, the Potency is reported as inconclusive: 18.4 µM [activator, single point].
